The values are deposited in ChEMBL (CHEMBL3988442, “University of Dundee, Small-Polar-MMV Screening Library” (2021)).

By UniProt entry, the sequences of proteins in these tests, tags left out.
UniProt E9BF75, entry or part of it: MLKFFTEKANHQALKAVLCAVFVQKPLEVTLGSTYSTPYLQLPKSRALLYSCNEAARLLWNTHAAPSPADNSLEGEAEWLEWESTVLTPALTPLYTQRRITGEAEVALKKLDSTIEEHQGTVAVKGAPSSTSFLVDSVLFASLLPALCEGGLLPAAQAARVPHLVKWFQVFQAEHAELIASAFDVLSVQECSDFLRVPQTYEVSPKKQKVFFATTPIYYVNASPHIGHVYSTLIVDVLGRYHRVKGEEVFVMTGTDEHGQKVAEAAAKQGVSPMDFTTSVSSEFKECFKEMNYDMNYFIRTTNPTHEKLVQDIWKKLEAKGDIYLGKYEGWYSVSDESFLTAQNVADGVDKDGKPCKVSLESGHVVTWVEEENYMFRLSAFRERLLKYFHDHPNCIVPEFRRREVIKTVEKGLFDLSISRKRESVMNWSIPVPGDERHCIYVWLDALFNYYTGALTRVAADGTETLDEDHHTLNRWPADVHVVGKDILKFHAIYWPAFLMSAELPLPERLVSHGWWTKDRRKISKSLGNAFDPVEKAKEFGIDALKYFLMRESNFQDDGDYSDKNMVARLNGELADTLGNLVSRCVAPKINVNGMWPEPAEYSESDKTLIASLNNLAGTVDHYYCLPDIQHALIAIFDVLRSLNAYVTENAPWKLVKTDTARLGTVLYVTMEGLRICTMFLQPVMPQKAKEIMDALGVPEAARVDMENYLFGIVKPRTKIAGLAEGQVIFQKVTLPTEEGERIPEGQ

Mtb heat-shock: 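Assay on Mycobacterium tuberculosis, filed only as a heat shock assay from Cornell; the read-out is not stated. The concentration is filed as 10 mM, unlikely as a test dose, so the dose is not known. Direction is inferred from retests: higher values go with stronger inhibition. Size under these conditions: about 69,000 compounds, about 930 of them at 50% or above in at least one test.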
Mtb growth Cornell: 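Whole-cell assay for inhibitors of Mycobacterium tuberculosis growth, labelled Cornell in the record; the read-out is not stated. The concentration is filed as 10 mM, unlikely as a test dose, so the dose is not known. Higher means stronger inhibition (inferred from two other growth screens of the library). Size under these conditions: about 53,000 compounds, about 900 of them at 50% or above in at least one test.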
LdMetRS: 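Methionyl-tRNA synthetase (putative), Leishmania donovani (UniProt E9BF75). Primary screen of methionyl-tRNA synthetase; the read-out is not stated. The test concentration is not given. Values are per cent inhibition. Of about 68,000 compounds tested this way, about 24 (0.035%) reached 50% or more in at least one test.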

All values are in %. How 0% and 100% were set is not recorded. Most values in the screen are low, and negative values occur. The compounds are a random part of those screened. A dash means the value is not listed here; it may have been measured.

structure	Mtb heat-shock	Mtb growth Cornell	LdMetRS
NC(=O)c1nc2c(s1)CCN(C(=O)Nc1ccccc1)CC2	3.81%	20.37%	11.48%
Cc1cc(CN(C)C(=O)C2CCCN(C(=O)c3cccs3)C2)no1 (stereo not shown)	2.483%	-12.94%	6.299%
Cc1cc(CN(C)C2CCN(c3cccc(-c4cscn4)c3)CC2)on1	7.913%	-	3.733%
CCc1nnc2n1CCN(C(=O)c1ccc(-c3ccco3)nc1C)C2	-8.94%	10.94%	6.103%
CSc1nnc(N(CCC#N)CCC#N)s1	-17.22%	7.045%	7.008%
CN(C)C(=O)N1CC[C@H]2[C@H]1CCN2c1nncs1	-	-	18.48%
CCc1sc(C(=O)Nc2cnn(CC(=O)NC3CC3)c2)cc1C	-2.159%	3.204%	2.375%
Cc1cccc(CN2C(=O)CCC23CCNCC3)n1	-	-	17.63%
COCCN1CCOCC2(CCCN(Cc3ccc(C)o3)C2)C1.O=C(O)C(F)(F)F.O=C(O)C(F)(F)F (stereo not shown)	-7.771%	4.03%	-
COc1coc(CN2CCCC(CCc3ccccc3F)C2)cc1=O (stereo not shown)	-12.81%	32.07%	10.31%
COCCC(=O)N1CCCC2(CCN(c3ccccc3)C2=O)C1 (stereo not shown)	-5.816%	20.14%	-14.01%
COc1coc(C(=O)Nc2ccncc2)cc1=O	-21.03%	0.5506%	11.29%
O=C(Nc1ccc2c(c1)OCO2)c1ccc(N2CCCC2)nn1	-6.137%	-9.794%	8.908%
Cc1ccccc1OC1CCN(C(=O)CNC(=O)N(C)C)CC1	13.06%	-10.23%	3.474%
Cc1cc(CSCc2cc(C)on2)on1	-3.964%	-12.52%	10.13%
CCn1ccnc1CN1CCCN(C(=O)C2(C#N)CCCCC2)CC1	-1.572%	18.96%	17.54%
O=C(OCc1cccc(F)c1)c1cccc(C(=O)N2CCCC2)n1	-22.49%	10.46%	9.22%
Cc1csc(-c2cccc(NC(=O)NCC(C)(C)C(N)=O)c2)n1	8.251%	36.78%	6.948%
Cc1cnn(C2CN(Cc3nc(-c4ccccc4C)no3)C2)c1	-12.02%	-13.18%	5.413%
CCOc1ccc2[nH]c(=O)c(CN(C)CCc3cn[nH]c3)cc2c1	3.828%	13.88%	1.742%
COc1cc(CNc2ccc(C)c(Cl)c2)ccc1OCC(N)=O	-9.668%	0.4995%	11.8%
[H][C@@]12CCN(C(=O)CC)C[C@]1([H])OCCN(Cc1ccc(OC)cc1)C2=O	-18.46%	-24.31%	-
Cc1ccccc1CC(=O)N1CCc2c(ncnc2N2CCOCC2)C1	-35.8%	-6.508%	9.363%
CCc1noc(CC)c1CC(=O)N1CCCC(N2CCCCC2)C1 (stereo not shown)	6.821%	11%	17.1%
CCN(Cc1ccncc1)C(=O)c1cc(C)c(C)c(S(N)(=O)=O)c1	13.84%	9.489%	15.62%
Cc1ccc(C(CNCc2ccc(C#N)cc2)N2CCOCC2)s1 (stereo not shown)	-11.33%	15.68%	13.74%
CN(C)CCN(Cc1ccc(Cl)cc1)C(=O)c1ccncc1	-31.75%	-11.62%	14.67%
O=C(O)C(F)(F)F.[H][C@]12CCC[C@@H](CNc3nccn3C)[C@@]1([H])CN(Cc1nccs1)C2	-42.29%	27.81%	-
N#Cc1ccnc(N2CCN(C(=O)c3ccc4c(c3)CCO4)CC2)c1	-3.632%	13.96%	9.938%
CCn1cc2c(n1)CN(C(=O)c1ccncc1)CC2COCC1CC1.O=C(O)C(F)(F)F (stereo not shown)	-8.527%	26.02%	-
Cc1nc(C)c(C(=O)N2CCc3nc4c(C)csc4c(=O)n3CC2)s1	-	-	3.059%
CN(CCCNC(=O)c1cccc(OCC(N)=O)c1)CC(F)(F)F	12.14%	20.91%	10.42%
CCn1c(=O)n(CC)c2cc(S(N)(=O)=O)ccc21	1.323%	9.209%	15.05%
Cc1nc(CN2CCCC2C(=O)OCc2ccccc2)oc1C (stereo not shown)	-27.77%	47.72%	11.56%
COCC(=O)N1CCOC(c2cccc(-c3cncnc3)n2)C1 (stereo not shown)	-11.28%	-11.99%	15.82%
Cc1cc(C(=O)N2CCC(n3cc(CO)nn3)CC2)ccc1F	7.142%	1.493%	9.409%
COCCN1C(=O)CO[C@H]2CN(Cc3ccccc3OC)C[C@H]21	-	-	14.01%
Cc1cn2cc(C(=O)NC3CCCN(c4ncccn4)C3)ccc2n1 (stereo not shown)	-20.29%	-14.56%	7.343%
O=C(CCn1cncn1)NCC(c1ccco1)N1CCCCC1 (stereo not shown)	-10.56%	-	9.945%
COCCC(=O)N1CCN(CC(C)C)c2nc(C)ccc2C1.O=C(O)C(F)(F)F	-11.85%	6.09%	-
Cc1nnc(SCCNc2cc(C3CC3)ncn2)s1	11.09%	4.142%	15.18%
O=C1CCc2ccccc2N1CCCn1cnnn1	18.04%	-27.91%	9.966%
CC1CN(Cc2cccc(C#N)c2)CCN1c1ccc2nncn2n1 (stereo not shown)	-0.3958%	-	13.65%
[H][C@@]12CCN(c3ncccn3)[C@]1([H])CC[C@H](c1nc(C)no1)O2	3.792%	-25.42%	-
OC1(CN2CCCC2)COCCN(c2ncnc3[nH]ccc23)C1 (stereo not shown)	-2.559%	-	8.824%
O=C(Nc1cccnc1)C1CCCN(c2cc(-n3cccn3)ncn2)C1 (stereo not shown)	-1.512%	11.3%	4.317%
CN(C)CC(=O)N1CCc2ncnc(-c3ccoc3)c2CC1	-2.842%	-18.39%	13.49%
Cc1ccc2c(n1)N(CCN(C)C)CCN(Cc1c(C)noc1C)C2	-	-	12.2%
Cc1ccc2c(n1)N(CCN(C)C)CCN(C(=O)c1ccoc1)C2.O=C(O)C(F)(F)F.O=C(O)C(F)(F)F	1.528%	18.57%	-
c1ccc(C[C@H]2[C@H](N3CCOCC3)CCN2Cc2cccnc2)cc1	16%	23.8%	15.48%
Cc1ccc(-n2cc(C(=O)N3CCn4c(C)nnc4C3)nn2)cc1	-22.83%	-22.5%	6.748%
CCNc1ncc(C(=O)NC(c2ccccc2)c2ccco2)cn1 (stereo not shown)	15.55%	18.02%	12.41%
Cn1nc(C2CCCN(Cc3ccc(F)cc3F)C2)c2nccnc21 (stereo not shown)	-11.18%	15.15%	8.333%
Cc1cc(C(=O)NCc2cnn(C)c2C)nc(N2CCCCCC2)n1	-5.438%	-	12.71%
Cc1noc(CN2CCN(CCS(C)(=O)=O)CC2)n1	13.52%	-	9.964%
Cc1nc(CN2CCOCC3(CCN(c4cccnc4)CC3)C2)cs1	-	-	6.667%

The first 5 entries again:

structure,Mtb heat-shock,Mtb growth Cornell,LdMetRS
NC(=O)c1nc2c(s1)CCN(C(=O)Nc1ccccc1)CC2,3.81%,20.37%,11.48%
Cc1cc(CN(C)C(=O)C2CCCN(C(=O)c3cccs3)C2)no1 (stereo not shown),2.483%,-12.94%,6.299%
Cc1cc(CN(C)C2CCN(c3cccc(-c4cscn4)c3)CC2)on1,7.913%,-,3.733%
CCc1nnc2n1CCN(C(=O)c1ccc(-c3ccco3)nc1C)C2,-8.94%,10.94%,6.103%
CSc1nnc(N(CCC#N)CCC#N)s1,-17.22%,7.045%,7.008%